# Experimental data as given in PubChem BioAssay AID504834 (National Center for Advancing Translational Sciences (NCATS), 2011).
# Out of some 320,000 compounds screened, about 22,000 (6.9%) were called active. This list was built around the results that the source calls inconclusive (neither active nor inactive); the mix of calls is not that of the screen. The call rests on the fitted dose curve; in most records, active means well fitted inhibition curve with a large enough effect; inconclusive means small, poorly fitted or top-dose-only effect, or another doubt; inactive means no such curve, though single readings can be large or run the other way. Potencies of inconclusive entries are doubtful fits and often do not repeat.
# Test: Primary qHTS for delayed death inhibitors of the malarial parasite plastid, 96 hour incubation
# Conditions: P. falciparum luciferase reporter growth; series mostly up to 28.7 µM; activity change, negative = inhibition: at the top concentration
# Outline: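 Parasite growth measured via integrated firefly luciferase reporter in P. falciparum. Infected erythrocytes at 2% hematocrit, 0.05% parasitemia final were treated 96 hours at 37 C under 5% CO2, and luminescence was read.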
# On the % scale 0 is the no-effect control and ±100 the full control effect; potency means the concentration at half of the fitted maximal effect.
SMILES,"activity change, negative = inhibition",Potency
Cc1ccc(C(C[N+](=O)[O-])c2c(C)[nH]n(-c3ccccc3)c2=O)cc1 (stereo unspecified),inactive: -9.19%,
CCC(C)NC(=O)C1(C)CCC(=O)N1Cc1ccccc1OC (stereo unspecified),,"inconclusive: 18.5 µM [inhibitor, single point]"
COC(=O)c1cc(NS(=O)(=O)c2ccc3c(c2)c(=O)n(C)c(=O)n3C)cc(C(=O)OC)c1,,"inconclusive: 18.5 µM [inhibitor, single point]"
O=c1c2ccccc2nc(N2CCN(c3ccccc3)CC2)n1Cc1ccccc1,,"inconclusive: 0.0041 µM [inhibitor, full curve, poor fit]"
COCCOC(=O)C1=C(C)NC(=O)NC1c1ccc(-c2ccc(F)cc2)o1 (stereo unspecified),,"inconclusive: 11.7 µM [inhibitor, single point]"
C=CCn1c(O)c(/C=C2/C=c3ccccc3=N2)c(=O)[nH]c1=S,,"inconclusive: 0.262 µM [inhibitor, full curve, poor fit]"
COc1ccc(NC(C)C(=O)Nc2ccc(C#N)cc2)cc1Cl (stereo unspecified),,active: 2.33 µM
O=C(CSc1nnc(-c2ccc(Cl)cc2)o1)N1CCOCC1,inactive: 1.94%,
COc1ccc(OC)c2sc(N(CCCN(C)C)C(=O)CCS(=O)(=O)c3ccccc3)nc12,inactive: 20.3%,
CC1=C(C(=O)OCc2ccccc2)C(c2ccc(C#N)cc2)NC(=O)N1CCCC(=O)O (stereo unspecified),inactive: -26.4%,
O=C(COC(=O)c1ccc(O)cc1)NC(=O)NCc1ccccc1,,"inconclusive: 11.7 µM [inhibitor, single point]"
CC(C)(CNC(=O)/C=C/c1ccc(F)cc1)CNC(=O)/C=C/c1ccc(F)cc1,,"inconclusive: 10.4 µM [inhibitor, single point]"
O=C1C=C(Nc2ccc(O)cc2)C(=O)c2ccccc21,inactive: -104%,
O=C(O)CSCC(=O)NCc1ccccc1,,"inconclusive: 18.5 µM [inhibitor, single point]"
CC1=C(C(N)=O)C(c2ccccc2F)n2nc(CCCO)nc2N1 (stereo unspecified),inactive: -26.6%,
CNC(=O)c1c(NC(=O)c2cccc(N3C(=O)CCC3=O)c2)sc2c1CCCC2,inactive: 11.6%,
COc1cc(NC(=O)CSc2nc3ccccc3n2-c2ccccc2)c(C)cc1[N+](=O)[O-],,"inconclusive: 9.28 µM [inhibitor, partial curve, poor fit]"
CCCCNC(=S)Nc1cc([N+](=O)[O-])ccc1C,,"inconclusive: 18.5 µM [inhibitor, single point]"
COc1ccc(S(=O)(=O)Nc2cccnc2)cc1,inactive: 32.6%,
CCOc1ccc(-n2ccnc2SCC(=O)Nc2nnc(CC)s2)cc1,,"inconclusive: 2.08 µM [inhibitor, partial curve, poor fit]"
CCc1ccc(N2C(=O)Nc3ccc(Br)cc3C2(O)C(=O)NCCN(C)C)cc1 (stereo unspecified),,"inconclusive: 0.928 µM [inhibitor, full curve, poor fit]"
COCCNC(=O)CN(Cc1ccccc1)C(=O)CCC(=O)Nc1nccs1,inactive: 10.5%,
CCOc1ccccc1NC(=O)COC(=O)c1c(CC)noc1C,inactive: 17.5%,
CCN(CC)S(=O)(=O)c1ccc2c(c1)[nH]c(=S)n2CC,,"inconclusive: 18.5 µM [inhibitor, single point]"

SMILES,"activity change, negative = inhibition",Potency
COCCNC(=O)CSc1nc2sccc2c(=O)n1-c1ccccc1,,"inconclusive: 20.8 µM [inhibitor, partial curve, poor fit]"
O=C(c1cc(C2CC2)nn1-c1ccccc1)N1CCN(Cc2c(F)cccc2Cl)CC1,,"inconclusive: 11.7 µM [inhibitor, single point]"
CCC(=O)c1ccc(OCC(=O)Nc2nc(-c3cccnc3)cs2)cc1,,"inconclusive: 2.62 µM [inhibitor, partial curve, poor fit]"
FC(F)Sc1ccc(NC(=S)NC(c2ccccc2)c2ccccc2)cc1,,"inconclusive: 3.29 µM [inhibitor, full curve, poor fit]"
CC1(c2ccccc2Cl)NC(=O)N(CC(=O)N2c3ccccc3NC(=O)C2(C)C)C1=O (stereo unspecified),,"inconclusive: 1.04 µM [inhibitor, partial curve, poor fit]"
COC(=O)c1ccccc1S(=O)(=O)N(Cc1cc2ccc(OC)cc2[nH]c1=O)CC1CCCO1 (stereo unspecified),,"inconclusive: 0.0828 µM [inhibitor, full curve, poor fit]"
CCc1nnc(NC(=O)C=C(C)C)s1,,"inconclusive: 0.329 µM [inhibitor, full curve, poor fit]"
C/C(CC(=O)Nc1ccc2c(c1)OCO2)=N\NC(=O)c1ccccc1N,,"inconclusive: 7.38 µM [inhibitor, partial curve, poor fit]"
COc1cccc(-c2noc(CCC(=O)NCCc3ccccc3)n2)c1,inactive: 9.64%,
CCSc1nc2ccc(N3C(=O)C4C5C=CC(C5)C4C3=O)cc2s1 (stereo unspecified),inactive: 79.9%,
O=C(OCc1nc2ccccc2s1)c1ccco1,,"inconclusive: 18.5 µM [inhibitor, single point]"
COc1ccc(C2NC(=S)NC(C)=C2C(=O)c2ccccc2)cc1OC (stereo unspecified),,"inconclusive: 10.4 µM [inhibitor, partial curve]"
COc1ccc(C(C(=O)Nc2ccc(F)cc2)N(C(=O)Cn2nnc3ccccc32)C2CC2)cc1 (stereo unspecified),,"inconclusive: 1.31 µM [inhibitor, partial curve, poor fit]"
COc1ccccc1C(=O)Nc1ccc(OCc2nnc3c4ccccc4c(C)nn23)cc1,,active: 9.28 µM
COc1ccccc1CNC(=O)c1c(N)n(CCCN2CCOCC2)c2nc3ccccc3nc12,,"inconclusive: 18.5 µM [inhibitor, single point]"
O=C(c1ccc2c(=O)n3c(nc2c1)CCCCC3)N1CCN(c2ccc([N+](=O)[O-])cc2)CC1,inactive: 14.9%,
CC(C)Oc1ccc(C2CC(=O)N(c3cccc(C(=O)O)c3)C2=O)cc1 (stereo unspecified),inactive: 6.37%,
CC(=O)Nc1nc(C)nc(-c2ccccc2OC(C)=O)n1,,"inconclusive: 14.7 µM [inhibitor, single point]"
CCCC(=O)NCc1nc2ccccc2n1C,inactive: 1.81%,
COCCNC(=S)N1CCN(C(c2ccccc2)c2ccccc2)CC1,,"inconclusive: 18.5 µM [inhibitor, single point]"
OC1(c2ccc(Cl)cc2)CCN(Cc2cn[nH]c2-c2ccc(F)cc2)CC1,,"inconclusive: 14.7 µM [inhibitor, single point]"
O=C(O)CCCN1C(=O)c2ccccc2Sc2ncccc21,,"inconclusive: 3.29 µM [inhibitor, partial curve, poor fit]"
O=C(Nc1nc2ccsc2c(=O)s1)c1ccc(Cl)cc1,inactive: 305%,
O=Cc1ccc(OC(=O)CCCCC(=O)Oc2ccc(C=O)cc2)cc1,,active: 0.0033 µM

# Random excerpt: 6 records from the list.
SMILES,"activity change, negative = inhibition",Potency
CC(=O)Nc1nc(C)nc(-c2ccccc2OC(C)=O)n1,,"inconclusive: 14.7 µM [inhibitor, single point]"
O=C(c1ccc2c(=O)n3c(nc2c1)CCCCC3)N1CCN(c2ccc([N+](=O)[O-])cc2)CC1,inactive: 14.9%,
OC1(c2ccc(Cl)cc2)CCN(Cc2cn[nH]c2-c2ccc(F)cc2)CC1,,"inconclusive: 14.7 µM [inhibitor, single point]"
CCSc1nc2ccc(N3C(=O)C4C5C=CC(C5)C4C3=O)cc2s1 (stereo unspecified),inactive: 79.9%,
COCCNC(=S)N1CCN(C(c2ccccc2)c2ccccc2)CC1,,"inconclusive: 18.5 µM [inhibitor, single point]"
COc1ccccc1C(=O)Nc1ccc(OCc2nnc3c4ccccc4c(C)nn23)cc1,,active: 9.28 µM

# Remaining list, next part:

SMILES,"activity change, negative = inhibition",Potency
Cc1cc(=O)[nH]c(SCC(=O)C23CC4CC(CC(C4)C2)C3)c1C#N,inactive: 0.803%,
CCCCc1nnc(NC(=O)c2cccc(S(=O)(=O)N3CCN(C)CC3)c2)s1,inactive: -15.7%,
O=S(=O)(c1ccccc1)c1nc(NCc2ccccc2)sc1Cl,inactive: 11.2%,
COc1cc(-c2ccc3sc(-c4ccsc4)c(C#CCO)c3c2)cc(OC)c1OC,,"inconclusive: 4.65 µM [inhibitor, partial curve, poor fit]"
O=C(NC(=S)Nc1nc2c(s1)CSc1ccccc1-2)c1ccccc1,,"inconclusive: 18.5 µM [inhibitor, single point]"
COc1cccc(-c2nc(CS(=O)(=O)CC(=O)N3CCOCC3)c(C)o2)c1,inactive: 80.5%,
Cc1ccc(C)c(-n2c3nc(=O)n(C)c(=O)c-3cc3ccccc32)c1,inactive: -22%,
CCCCOC(=O)CN1C(=O)c2ccc(C(=O)OCCCC)cc2C1=O,,"inconclusive: 18.5 µM [inhibitor, single point]"
O=C(NCCc1csc(-c2ccc(C(F)(F)F)cc2)n1)c1cccs1,,"inconclusive: 18.5 µM [inhibitor, single point]"
CCOCC(=O)Nc1cc(C(=O)NCCC(C)C)ccc1Cl,inactive: 27.9%,
O=C(O)CNC(=O)c1ccc(NC(=O)/C(=C/c2cccc([N+](=O)[O-])c2)NC(=O)c2ccco2)cc1,inactive: -3.13%,
Cc1ccn2c(=O)nc(SCC(=O)Nc3ccc4c(c3)OCCO4)nc2c1,inactive: 27.3%,
COc1ccc2c(c1)O[C@@H](c1cccc(C(F)(F)F)c1)[C@H](OC(=O)NCCc1ccc(OC)c(OC)c1)C2=O,,"inconclusive: 10.4 µM [inhibitor, single point]"
COc1ccc(CCC(=O)Nc2ccc(S(=O)(=O)Nc3ncccn3)cc2)cc1,inactive: -27.4%,
Cc1c(NC(=O)COc2ncnc3c(Cl)cc(Cl)cc23)c(=O)n(-c2ccccc2)n1C,inactive: 8.01%,
O=C(/C=C/c1cccc([N+](=O)[O-])c1)NC1CC2CCC1C2 (stereo unspecified),inactive: 59.3%,
CC(C)(Cc1ccccc1)NC(=O)C(=O)c1cn(CC(=O)N2CCOCC2)c2ccccc12,,"inconclusive: 18.5 µM [inhibitor, single point]"
COc1ccc(CNC(=O)C2CCN(S(=O)(=O)c3ccc4c(c3)NC(=O)C(C)S4)CC2)cc1 (stereo unspecified),,"inconclusive: 18.5 µM [inhibitor, single point]"
Cc1sc2nc(CN3CCCC3)nc(Cl)c2c1C,,"inconclusive: 18.5 µM [inhibitor, single point]"
CCSC1=N/C(=C\c2cccnc2)C(=O)N1c1ccccc1,,"inconclusive: 18.5 µM [inhibitor, single point]"
Cc1cnc(C(=O)N2CCc3c([nH]c4ccccc34)C2c2ccc(F)cc2)cn1 (stereo unspecified),,"inconclusive: 18.5 µM [inhibitor, single point]"
Cc1c(O)c(=O)c2ccccc2n1C,inactive: 0.455%,
Cc1cccc(NC(=O)CCC(=O)N/N=C/c2ccco2)c1,,"inconclusive: 10.4 µM [inhibitor, partial curve, poor fit]"
